Literature values as cited in patent US20210052563A1, “PROTON PUMP INHIBITORS AND METHODS OF USE IN CHEMORADIATION-INDUCED TISSUE INFLAMMATION AND SCARRING” (Baylor College of Medicine, priority 2018, published 2021).
At least one structure is not confirmed: it was looked up by name or label, or the drawing left a doubt.

Tested on: chemotherapy-resistant human cancer cell lines
Conditions: PPI pretreatment vs no pretreatment; melanoma, colon, breast and ovarian cancer cell lines; cited from earlier work

COc1ccc2[nH]c([S+]([O-])Cc3ncc(C)c(OC)c3C)nc2c1 (stereo not shown) [omeprazole]
change of IC50 values of cisplatin, vinblastine and 5-fluorouracil: order of magnitude reduction
